Data reported in publication PMC8275807.
Results are given in words; binding and its absence hold for the method and conditions named. Binding seen in cells or lysates may run through a third protein. Binding calls can cover weak binding; strength is not graded here. Sequences can lack the tags named with a protein.

Molecular target: eGFP-Mu2 (Drosophila MDC1 homolog) (Drosophila)
Experiment: proximity ligation; Duolink in situ PLA (fluorescence) on third instar larval eye discs expressing the tagged transgenes; rabbit anti-V5 + mouse anti-GFP for TER94 and Mu2; rabbit anti-Myc + mouse anti-GFP for p53 and Mu2

binding: binds
B1: 6XMyc-p53A (Drosophila p53 isoform A) (protein, UniProt Q9N6D8 1-385)
chain: MYISQPMSWHKESTDSEDDSTEVDIKEDIPKTVEVSGSELTTEPMAFLQGLNSGNLMQFSQQSVLREMMLQDIQIQANTLPKLENHNIGGYCFSMVLDEPPKSLWMYSIPLNKLYIRMNKAFNVDVQFKSKMPIQPLNLRVFLCFSNDVSAPVVRCQNHLSVEPLTANNAKMRESLLRSENPNSVYCGNAQGKGISERFSVVVPLNMSRSVTRSGLTRQTLAFKFVCQNSCIGRKETSLVFCLEKACGDIVGQHVIHVKICTCPKRDRIQDERQLNSKKRKSVPEAAEEDEPSKVRRCIAIKTEDTESNDSRDCDDSAAEWNVSRTPDGDYRLAITCPNKEWLLQSIEGMIKEAAAEVLRNPNQENLRRHANKLLSLKKRAYELP
